Measured values: patent US7572826B2, “Thiophene-carboxamide derivatives and their use as inhibitors of the enzyme IKK-2” (AstraZeneca AB, priority 2003, dated 2009)
pIC50: −log10 of the molar value. Some results were stated once for a whole list of compounds, not compound by compound.

biological target: T1, IKK-2 (Homo sapiens, UniProt O14920); assay: IKK-2 filter kinase assay; format: biochemical; conditions: 1 μM ATP, 1-53 GST-IκB substrate, read-out: Inhibition of IKK-2 IC50
T1 sequence (O14920 1-756): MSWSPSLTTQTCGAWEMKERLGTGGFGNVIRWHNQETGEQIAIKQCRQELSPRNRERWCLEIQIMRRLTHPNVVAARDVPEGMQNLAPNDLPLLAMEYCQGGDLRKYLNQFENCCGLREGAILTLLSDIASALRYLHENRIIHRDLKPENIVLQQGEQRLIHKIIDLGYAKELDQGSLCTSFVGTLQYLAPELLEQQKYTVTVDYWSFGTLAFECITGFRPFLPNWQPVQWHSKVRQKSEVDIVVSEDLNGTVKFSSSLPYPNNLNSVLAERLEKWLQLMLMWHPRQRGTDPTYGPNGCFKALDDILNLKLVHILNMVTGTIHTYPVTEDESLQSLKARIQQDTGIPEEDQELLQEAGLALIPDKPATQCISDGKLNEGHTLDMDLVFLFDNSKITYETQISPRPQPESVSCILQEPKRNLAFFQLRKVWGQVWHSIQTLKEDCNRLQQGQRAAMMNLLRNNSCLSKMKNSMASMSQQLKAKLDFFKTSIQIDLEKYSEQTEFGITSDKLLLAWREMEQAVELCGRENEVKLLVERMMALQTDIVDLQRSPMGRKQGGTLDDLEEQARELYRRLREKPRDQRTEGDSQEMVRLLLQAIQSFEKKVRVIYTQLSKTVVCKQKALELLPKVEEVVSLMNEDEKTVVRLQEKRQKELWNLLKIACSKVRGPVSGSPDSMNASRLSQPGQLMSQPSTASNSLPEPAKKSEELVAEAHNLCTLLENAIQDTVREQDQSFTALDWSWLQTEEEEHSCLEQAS
Method: The test compounds were dissolved to 10 mM in dimethylsulphoxide (DMSO). The compounds were then diluted 1 in 40 in kinase buffer (50 mM Tris, pH 7.4 containing 0.1 mM EGTA, 0.1 mM sodium orthovanadate and 0.1% β-mercaptoethanol). 1 in 3 serial dilutions were made from this solution with 2.5% DMSO in kinase buffer. 20 μl of compound dilution was added to wells of a 96 well plate in duplicate.
10 μl of a mixture of magnesium acetate, unlabelled ATP, and ^33P-labelled ATP was added to each well made such that the final concentration was 10 mM magnesium acetate, 1 μM ATP and 0.1 μCi ^33P ATP. […] The final reaction volume was 50 μl.
The kinase reactions were incubated at 21° C. for 80 minutes and the reaction stopped by precipitating the protein by the addition of an equal volume (50 μl) of 20% trichloroacetic acid (TCA). The precipitate was allowed to form for 10 minutes and then filtered onto a GF/C unifilter 96 well plate. Each filter was washed twice with approximately 1 ml 2% TCA. The filter plate was dried at 30-40° C. for 60 minutes, 20 μl scintillant was added to each well and the plate sealed and radioactivity counted on a Packard Topcount microplate scintillation counter.

pIC50, > 5.00:
NC(=O)Nc1sc(-c2ccc(CNC3CCCC3)cc2)cc1C(N)=O [Example 18, 2-[(Aminocarbonyl)amino]-5-[4-{(cyclopentylamino)methyl}phenyl]thiophene-3-carboxamide]
NC(=O)Nc1sc(-c2ccc(CNCc3cccnc3)cc2)cc1C(N)=O [Example 19, 2-[(Aminocarbonyl)amino]-5-[4-{[(pyridin-3-ylmethyl)amino]methyl}phenyl]thiophene-3-carboxamide]
NC(=O)Nc1sc(-c2ccc(CNCCc3ccccn3)cc2)cc1C(N)=O [Example 20, 2-[(Aminocarbonyl)amino]-5-[4{[(2-[pyridin-2-yl]ethyl)amino]methyl}phenyl]thiophene-3-carboxamide]
CC(C)(CO)NCc1ccc(-c2cc(C(N)=O)c(NC(N)=O)s2)cc1 [Example 21]
NC(=O)Nc1sc(-c2ccc(CNC(Cc3ccccc3)c3ccccc3)cc2)cc1C(N)=O (stereo not shown) [Example 22, 2-[(Aminocarbonyl)amino]-5-[4-{[({1,2-diphenyl}ethyl)amino]methyl}phenyl]thiophene-3-carboxamide]
COCC(C)NCc1ccc(-c2cc(C(N)=O)c(NC(N)=O)s2)cc1 (stereo not shown) [Example 23, 2-[(Aminocarbonyl)amino]-5-[4-{[({2-methoxy-1-methyl}etyl)amino]methyl}phenyl]thiophene-3-carboxamide]
CC(CO)NCc1ccc(-c2cc(C(N)=O)c(NC(N)=O)s2)cc1 (stereo not shown) [Example 24, 2-[(Aminocarbonyl)amino]-5-[4-{[({2-hydroxy-1-methyl}ethyl)amino]methyl}phenyl]thiophene-3-carboxamide]
Cc1ccccc1CNCc1ccc(-c2cc(C(N)=O)c(NC(N)=O)s2)cc1 [Example 25]
COc1cccc(CNCc2ccc(-c3cc(C(N)=O)c(NC(N)=O)s3)cc2)c1 [Example 26, 2-[(Aminocarbonyl)amino]-5-[4-{[(3-methoxybenzyl)amino]methyl}phenyl]thiophene-3-carboxamide]
NC(=O)Nc1sc(-c2ccc(CNCc3ccccc3F)cc2)cc1C(N)=O [Example 27, 2-[(Aminocarbonyl)amino]-5-[4-{[(2-fluorobenzyl)amino]methyl}pheny]thiophene-3-carboxamide]
NC(=O)Nc1sc(-c2ccc(CNCc3cccc(F)c3)cc2)cc1C(N)=O [Example 28]
NC(=O)Nc1sc(-c2ccc(CNCCCCc3ccccc3)cc2)cc1C(N)=O [Example 29, 2-[(Aminocarbonyl)amino]-5-[4-{[(4-{Phenyl}butyl)amino]methyl}pheynl]thiophene-3-carboxamide]
NC(=O)Nc1sc(-c2ccc(CNCc3cccc(C(F)(F)F)c3)cc2)cc1C(N)=O [Example 30]
N#CCCCCCNCc1ccc(-c2cc(C(N)=O)c(NC(N)=O)s2)cc1 [Example 31, 2-[(Aminocarbonyl)amino]-5-[4-{[(5-cyanonentyl)amino]methyl}phenyl]thiophene-3-carboxamide]
CC(C)CNCc1ccc(-c2cc(C(N)=O)c(NC(N)=O)s2)cc1 [Example 32, 2-[(Aminocarbonyl)amino]-5-[4-{({2-methyl}propylamino)methyl}phenyl]thiophene-3-carboxamide]
COc1ccc(CNCc2ccc(-c3cc(C(N)=O)c(NC(N)=O)s3)cc2)cc1 [Example 33, 2-[(Aminocarbonyl)amino]-5-[4-{[(4-methoxybenzyl)amino]methyl}phenyl]thiophene-3-carboxamide]
NC(=O)Nc1sc(-c2ccc(CNCCc3ccccc3)cc2)cc1C(N)=O [Example 34, 2-[(Aminocarbonyl)amino]-5-[4-{[(2-phenylethyl)amino]methyl}phenyl]thiophene-3-carboxamide]
NC(=O)Nc1sc(-c2ccc(CNCCO)cc2)cc1C(N)=O [Example 35, 2-[(Aminocarbonyl)amino]-5-[4-{[(2-hydroxyethyl)amino]methyl}phenyl]thiophene-3-carboxamide]
COC(C)(C)CNCc1ccc(-c2cc(C(N)=O)c(NC(N)=O)s2)cc1 [Example 36, 2-[(Aminocarbonyl)amino]-5-[4-{[({2-methoxy-2-methyl}propyl)amino]methyl}phenyl]thiophene-3-carboxamide]
CN(Cc1ccc(F)cc1)Cc1ccc(-c2cc(NC(N)=O)c(C(N)=O)s2)cc1 [Example 37, 3-[(Aminocarbonyl)amino]-5-[4-{[N-(4-fluorobenzyl)-N-methylamino]methyl}phenyl]thiophene-2-carboxamide]
CN(CCc1ccccn1)Cc1ccc(-c2cc(NC(N)=O)c(C(N)=O)s2)cc1 [Example 38, 3-[(Aminocarbonyl)amino]-5-[4-{[N-(2-{pyridin-2-yl}ethyl)methylamino]methyl}phenyl]thiophene-2-carboxamide]
CN(Cc1ccc(-c2cc(NC(N)=O)c(C(N)=O)s2)cc1)Cc1ccccn1 [Example 39, 3-[(Aminocarbonyl)amino]-5-[4-{[N-(pyridin-2-ylmethyl)methylamino]methyl}phenyl]thiophene-2-carboxamide]
CN(Cc1ccccc1)Cc1ccc(-c2cc(NC(N)=O)c(C(N)=O)s2)cc1 [Example 40, 3-[(Aminocarbonyl)amino]-5-[4-{[N-benzyl-N-methylamino]methyl}phenyl]thiophene-2-carboxamide]
CCN(CCOC)Cc1ccc(-c2cc(NC(N)=O)c(C(N)=O)s2)cc1 [Example 41, 3-[(Aminocarbonyl)amino]-5-[4-{[N-(2-methoxyethyl)ethylamino]methyl}phenyl]thiophene-2-carboxamide]
COCCN(C)Cc1ccc(-c2cc(NC(N)=O)c(C(N)=O)s2)cc1 [Example 42]
N#CCCN(Cc1ccccc1)Cc1ccc(-c2cc(NC(N)=O)c(C(N)=O)s2)cc1 [Example 43, 3-[(Aminocarbonyl)amino]-5-[4-{[N-benzyl-N-(2-cyanoethyl)amino]methyl}phenyl]thiophene-2-carboxamide]
CN(CCC#N)Cc1ccc(-c2cc(NC(N)=O)c(C(N)=O)s2)cc1 [Example 44, 3-[(Aminocarbonyl)amino]-5-[4-{[N-(2-cyanoethyl)-N-methylamino]methyl}phenyl]thiophene-2-carboxamide]
COCCN(Cc1ccc(-c2cc(NC(N)=O)c(C(N)=O)s2)cc1)C(C)C [Example 45, 3-[(Aminocarbonyl)amino]-5-[4-{[N-isopropyl-N-(2-methoxyethyl)amino]methyl}phenyl]thiophene-2-carboxamide]
COc1cccc(CNCc2ccc(-c3cc(NC(N)=O)c(C(N)=O)s3)cc2)c1 [Example 46, 3-[(Aminocarbonyl)amino]-5-[4-{[(3-methoxybenzyl)amino]methyl}phenyl]thiophene-2-carboxamide]
COCCN(Cc1ccc(-c2cc(NC(N)=O)c(C(N)=O)s2)cc1)Cc1ccccn1 [Example 47, 3-[(Aminocarbonyl)amino]-5-[4-{[N-(2-methoxyethyl)-N-(pyridin-2-yl)methylamino]methyl}phenyl]thiophene-2-carboxamide]
Cc1n[nH]c(C)c1CN(C)Cc1ccc(-c2cc(NC(N)=O)c(C(N)=O)s2)cc1 [Example 48]
Cc1cc(CN(C)Cc2ccc(-c3cc(NC(N)=O)c(C(N)=O)s3)cc2)on1 [Example 49, 3-[(Aminocarbonyl)amino]-5-[4-{({N-[3-methylisoxazol-5-yl]methyl]methylamino)methyl}phenyl]thiophene-2-carboxamide]
CN(CCO)Cc1ccc(-c2cc(NC(N)=O)c(C(N)=O)s2)cc1 [Example 50, 3-[(Aminocarbonyl)amino]-5-[4-{[N-(2-hydroxyethyl)methylamino]methyl}phenyl]thiophene-2-carboxamide]
COCCNCc1ccc(-c2cc(NC(N)=O)c(C(N)=O)s2)cc1 [Example 51, 3-[(Aminocarbonyl)amino]-5-[4-{[(2-methoxyethyl)amino]methyl}phenyl]thiophene-2-carboxamide]
